Source: PubChem BioAssay AID1259308 (NCATS, 2017)
Assay: 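Candidate targets for better recombinant protein yield in mammalian cells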 (primary screen). System: human HEK293 embryonic kidney cells stably expressing firefly luciferase (HEK-CMV-Luc2-Hygro). Reagents: single siRNA against human genes, 0.8 pmol siRNA per well. Duration: 72 h. Detection: 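Luciferase light (ONE-Glo) measured on one replicate plate set and viability (CellTiter-Glo) on the other, scaled to a negative control siRNA, with robust z-scores and luciferase per cell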. Reading the numbers: total luciferase, z-score: higher = more reporter protein produced. Hit rule: 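An siRNA counts as active if its total luciferase robust z-score exceeds 3; genes with two or more such siRNAs out of three were retested with fresh siRNAs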. Calls: active = raised luciferase; inactive = no rise.
Here is one part, drawn at random, of about 59,000 reagents tested. Over the whole deposit, about 1,510 (2.6%) are marked active. 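Calls use total luciferase alone and ignore viability, so some active siRNAs may act by altering cell number.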 A number with no mark means an inactive call. Reagents against one gene are numbered here. Further read-outs or replicates are left out here. Reagent sequences are not shown.

total luciferase, z-score, by target gene and reagent
KLRG2: #1 2.19; #2 -0.645; #3 -0.792
F5: #1 -0.269; #2 0.841; #3 -1.65
CSN1S1: #1 4.79 (active); #2 1.13; #3 0.825
NDST1: #1 1.47; #2 0.174; #3 -0.106
CCR3: #1 1.35; #2 0.58; #3 -2.03
GTPBP10: #1 0.724; #2 -1.22; #3 -1.95
WNT9B: #1 -2.76; #2 -0.555; #3 -0.117
STK38: #1 -1.89; #2 -0.706; #3 0.0812
EZH2: #1 1.74; #2 -1.62; #3 0.0713
IGSF6: #1 -0.432; #2 0.229; #3 0.333
TRAFD1: #1 3.16 (active); #2 0.331; #3 -0.542
PDLIM7: #1 0.309; #2 -0.303; #3 1.58
UQCC6: #1 1.81; #2 -0.131; #3 -0.394
GALNT8: #1 1.5; #2 1.4; #3 -1.23
KLHDC9: #1 0.9; #2 -0.0379; #3 0.428
ISOC1: #1 6.93 (active); #2 -0.535; #3 -0.846
NDUFB2: #1 -0.547; #2 0.835; #3 -1.72
LRRC52: #1 -0.533; #2 0.723; #3 -1.15
NEURL3: #1 -0.0898; #2 0.729; #3 -0.352

Reagents listed above called active (3):
total luciferase, z-score, by target gene and reagent
CSN1S1: #1 4.79 (active)
TRAFD1: #1 3.16 (active)
ISOC1: #1 6.93 (active)
